# Results reported in PubChem BioAssay AID624297 (National Center for Advancing Translational Sciences (NCATS), 2012).
# Values joined by “and” are separate entries in the source; they are usually repeats but may differ in a detail not shown here. Equal entries are not always repeated. About 6,200 (1.8%) of roughly 340,000 compounds were called active. This list was built around the results that the source calls inconclusive (neither active nor inactive); the mix of calls is not that of the screen. Calls follow the shape of the dose curve; as a rule, active = well fitted activation curve with a large enough effect; inconclusive = small, poorly fitted or top-dose-only effect; inactive = no such curve, though single readings can be large or run the other way. Where the call is inconclusive, the potency comes from a doubtful curve fit. The source holds several records for some structures; these can differ, active in one and inactive in another.
# Test: A quantitative high throughput screen for small molecules that induce DNA re-replication in SW480 colon adenocarcinoma cells. Also: nearly all actives have a fitted effect of over 55% in size. As to re-replication activation: % of control where 0% means no effect.
# Details: Hoechst DNA content imaging, 48 h; re-replication activation: at 46.1 µM (top of the series)
# Method in brief: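 DNA re-replication was detected as more nuclei of elevated Hoechst intensity after 48 hr exposure to compound (23 nL pinned per well of 250 cells).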
# Potency is read from the fitted curve at half-maximal effect.
Structure (SMILES),Potency,re-replication activation
C[C@]12CC[C@H](O)C[C@H]1CCC1C2CC[C@]2(C)[C@@H](c3ccc(=O)oc3)C[C@H]3O[C@]132 (stereo partly specified),"inconclusive: 8.41 µM [activator, full curve, poor fit]",–
COc1ccc(C2SCC(=O)Nc3c2c(C)nn3-c2ccccc2)cc1 (stereo unspecified),–,inactive: 2.48%
c1ccc2c(CN3CCN(C4CCCCC4)CC3)c[nH]c2c1,"inconclusive: 18.4 µM [activator, partial curve, poor fit]",–
COc1cc(C=C2C(=O)NC(=O)NC2=O)ccc1OCc1ccc([N+](=O)[O-])cc1,–,inactive: -18.3%
Cc1ccc(-c2cc(-c3ccc(C)cc3)[n+](-c3ccccc3)c(-c3ccc(C)cc3)c2)cc1,"inconclusive: 20.6 µM [activator, single point]",–
N#CC1=C(N)Oc2c(c(=O)sc3ccccc23)C1c1cccnc1 (stereo unspecified),active: 14.6 µM,–
COP(=S)(OC)SCN1C(=O)c2ccccc2C1=O,"inconclusive: 28.2 µM [activator, single point]",–
Cc1cc(NC(=O)CCC(=O)N2CCC3(CC2)OCCO3)no1,"inconclusive: 14.1 µM [activator, partial curve, poor fit]",–
CNC(=O)c1cccn(Cc2cccc(C(F)(F)F)c2)c1=O,"inconclusive: 14.6 µM [activator, partial curve, poor fit]",–
CC(C)C1(C)N=C(c2nc3ccccc3cc2C(=O)O)NC1=O (stereo unspecified),–,inactive: -1.08%
CCn1c(O)c(C=Nc2ccc(S(N)(=O)=O)cc2)c(=O)n(CC)c1=S,–,inactive: 6.4%
COc1ccc(-n2c(-c3ccccc3[N+](=O)[O-])nc3ccccc3c2=O)cc1,"inconclusive: 23.1 µM [activator, single point]",–
O=C(COc1ccc(Cl)cc1Cl)Nc1ccc(CN2CCCCC2)cc1,–,inactive: -30.2%
CCCC(=O)OC(C(Cl)(Cl)Cl)P(=O)(OC)OC (stereo unspecified),–,inactive: 0.308%
COc1ccc(N2C(=O)NC(=O)/C(=C/c3ccc([N+](=O)[O-])s3)C2=O)cc1,"inconclusive: 29.1 µM [activator, single point]",–
Cc1cc(C(=O)OCC(=O)Nc2ccccc2F)c(C)n1C1CC1,–,inactive: 1.49%
C[C@H]1CC[C@@H]2[C@@H](C)[C@H]3[C@H](C[C@H]4[C@@H]5CC=C6C[C@@H](O[C@@H]7O[C@H](CO)[C@H](O)[C@H](O[C@@H]8O[C@H](CO)[C@@H](O)[C@H](O)[C@H]8O)[C@H]7O[C@@H]7O[C@@H](C)[C@H](O)[C@@H](O)[C@H]7O)CC[C@]6(C)[C@H]5CC[C@]34C)N2C1,"inactive and inconclusive: 29.1 µM [activator, single point]",–
C#CCOc1ccc2c(c1)c(C(C)=O)c(C)n2Cc1ccccc1,–,inactive: -4.32%
C[C@]12CC[C@@H](O)CC1=CCC1C2CC[C@]2(C)C(=O)[C@H](F)CC12 (stereo partly specified),–,inactive: 1.42%
c1ccc(CNCCc2c[nH]c3ccccc23)cc1,–,inactive: 0.0321%
Cc1cc(OCC(=O)N2CCC(C(=O)O)(c3ccccc3)CC2)c2c(C)c(C)c(=O)oc2c1,–,inactive: -7.72%
C[n+]1c2ccccc2nc2ccc(NCCO)cc21,"inconclusive: 29.1 µM [activator, single point]",–
COc1cc(/C=C/c2nc3ccccc3c(=O)n2-c2ccccc2O)ccc1O,–,inactive: 11.5%
Cc1cccc(OP(=O)(Oc2cccc(C)c2)OC(c2ccccc2)C(F)(F)F)c1 (stereo unspecified),"inconclusive: 20.6 µM [activator, single point]",–

Structure (SMILES),Potency,re-replication activation
C/C(=C\c1ccc(N(C)C)cc1)[N+](=O)[O-],active: 5.8 µM,–
O=C1NC(=O)C(=Cc2cn(CCOc3ccc4c(c3)OCO4)c3ccccc23)C(=O)N1,"inconclusive: 29.1 µM [activator, single point]",–
CC(C)Cc1nnc(NC(=O)CCC(=O)N2CCC3(CC2)OCCO3)s1,–,inactive: 12.1%
C=C1N2CCC(CC2)C1(O)c1ccc(C)cc1 (stereo unspecified),–,inactive: -3.65%
CCn1c(O)c(/C=N/NC(=O)c2ccccc2)c(=O)n(CC)c1=S,active: 18.4 µM,–
Cn1c(=O)c2c(nc(SCc3ccccc3)n2Cc2ccc(Cl)cc2)n(C)c1=O,"inconclusive: 29.1 µM [activator, single point]",–
CCN(CC)c1ccc(/C=C2/C(=O)NC(=O)N(CC3CCCO3)C2=O)cc1 (stereo unspecified),"inconclusive: 29.1 µM [activator, single point]",–
CC(C)(C)c1ccc(/C=C2\Oc3cc(OC(=O)N4CCOCC4)ccc3C2=O)cc1,"inconclusive: 29.1 µM [activator, single point]",–
COc1ccc(N=Cc2c(O)n(-c3ccc(C)cc3)c(=O)[nH]c2=O)cc1,"inconclusive: 16.4 µM [activator, single point]",–
ClCCN(CCCl)c1ccc(C=NNc2ncccn2)cc1,"inconclusive: 11.6 µM [activator, partial curve, poor fit]",–
O=S(=O)(c1ccc(F)c(F)c1F)N1CCN(c2ncnc3sccc23)CC1,"inconclusive: 29.1 µM [activator, single point]",–
CC1(C)OC(c2ccccc2)=C/C(=C/C=C2C(=O)NC(=S)NC2=O)O1,"inconclusive: 29.1 µM [activator, single point]",–
CCN1CCN(Cc2cc(OC)c3c(c2)OCO3)CC1,–,inconclusive: 24.2% [activator]
O=C1NC(=O)N(CCc2ccc(F)cc2)C(=O)/C1=C/c1ccco1,–,inactive: 3.58%
COc1ccc(OCC#CCN2CCC(C)CC2)cc1,"inconclusive: 0.92 µM [activator, full curve, poor fit]",–
CC1CCN(C(=O)C(C)Cl)CC1 (stereo unspecified),"inconclusive: 32.6 µM [activator, partial curve, poor fit]",–
O=c1oc2ccccc2n1CSC1=NCCS1,"inconclusive: 29.1 µM [activator, single point]",–
COc1ccc2nc(NC(=O)CCc3nc(C4=CCN(C)CC4)no3)sc2c1,–,inactive: -3.62%
CN(C)C(=S)SSC(=S)N(C)C,active: 1.33 µM,–
Cc1cc(C=C2C(=O)NC(=S)NC2=O)c(C)n1-c1ccc2c(c1)OCO2,"inconclusive: 31.6 µM [activator, single point]",–
Cc1cccc(N2CCN(C(=O)CCNS(=O)(=O)c3ccc4c(c3)oc(=O)n4C)CC2)c1C,"inconclusive: 0.517 µM [activator, partial curve]",–
COc1cc(C2SCC(=O)Nc3c2c(C)nn3-c2ccccc2)cc(OC)c1OC (stereo unspecified),–,inactive: -2.11%
CCc1ccc(N2C(=O)NC(=O)/C(=C\c3cccn3CCOc3ccc(C(C)C)cc3)C2=O)cc1,"inconclusive: 18.4 µM [activator, single point]",–
O=C(Nc1ccc(Cl)c(Cl)c1)c1ccco1,–,inactive: 1.46%

Structure (SMILES),Potency,re-replication activation
CC(C)(C)NCC(O)c1ccccc1Cl (stereo unspecified),–,inactive: -1.87%
COC(=O)C1=C(c2cccc(OCc3ccccc3)c2)C[C@@H]2CC[C@H]1N2C(=O)NCCc1ccc(F)cc1,–,inactive: 2.66%
CCCCCCn1c(=O)c(C(=O)Nc2cnccn2)c(O)c2ccccc21,–,inactive: -4.62%
CCOC(=O)c1ccc(N=C(CC)c2c(O)n(C)c(=O)n(C)c2=O)cc1,–,inactive: -2.62%
O=C(NCCCN1CC1)Nc1cccc2ccccc12,"inconclusive: 25.9 µM [activator, single point]",–
CN1[C@@H]2CC[C@H]1CC(OC1c3ccccc3CCc3ccccc31)C2 (stereo partly specified),active: 3.16 µM,–
CC(CCl)OC(C)CCl (stereo unspecified),"inconclusive: 23.1 µM [activator, single point]",–
O=C(O)C1=CC2c3ccccc3C1c1ccccc12,"inconclusive: 6.51 µM [activator, single point]",–
CCC(C(=O)N1C[C@H]2C[C@@H](C1)c1cccc(=O)n1C2)c1ccccc1 (stereo partly specified),"inconclusive: 2.31 µM [activator, partial curve, poor fit]",–
CC(C)(C)c1ccc(C(=O)NCCN2CCOCC2)cc1,"inconclusive: 4.61 µM [activator, single point]",–
N#Cc1ccccc1Cn1cc(C(=O)C2CC2)c2ccccc21,"inconclusive: 29.1 µM [activator, single point]",–
Cc1ccc(C(=O)N[C@@H](C)CN2C3=NC[C@H](Cc4ccccc4)N3C[C@H]2Cc2ccc(O)cc2)cc1Br,active: 13 µM,–
C=CCN=C(SCC(=O)c1ccc(Cl)cc1)c1c(O)n(C)c(=O)n(C)c1=O,"inconclusive: 11.6 µM [activator, partial curve, poor fit]",–
O=C1NC(=S)NC(=O)C1=Cc1c(Cl)cccc1Cl,–,inactive: 95%
CCCOP(=O)(OCCC)C1(Nc2ccc(C)cc2)CCCCC1,"inconclusive: 29.1 µM [activator, single point]",–
N#CC(C#N)=Cc1ccc(C=C(C#N)C#N)cc1,"inconclusive: 16.4 µM [activator, single point]",–
CCCCn1c(C)c(C(=O)OCC)c2c(CN3CCCC3)c(O)ccc21,"inconclusive: 23.1 µM [activator, single point]",–
CCOC(=O)C(C)Oc1cc(C)cc2oc(=O)c3c(c12)CCCC3 (stereo unspecified),–,inactive: -2.01%
Cc1ccc(N2C(=O)NC(=O)/C(=C/C=C/c3ccco3)C2=O)cc1,active: 16.4 µM,–
COC(=O)C1=C(c2ccc(F)cc2OCc2ccccc2)C[C@@H]2CC[C@H]1N2C(=O)NCc1ccccc1Cl,"inconclusive: 1.46 µM [activator, partial curve]",–
CCn1cc(CN2CCCC(C(=O)c3sccc3C)C2)cn1 (stereo unspecified),–,inactive: -0.823%
CCCN1CCc2cc(O)cc3c2[C@H]1Cc1ccc(O)c(O)c1-3,"inconclusive: 23.1 µM [activator, single point]",–
CC(=O)OC1CC(OC2C(O)CC(OC3C(O)CC(OC4CCC5(C)C(CCC6C5CC(O)C5(C)C(C7=CC(=O)OC7)CCC65O)C4)OC3C)OC2C)OC(C)C1OC1OC(CO)C(O)C(O)C1O (stereo unspecified),active: 1.84 µM,–

# Quoted at random: 5 records from the list.
Structure (SMILES),Potency,re-replication activation
CCCCn1c(C)c(C(=O)OCC)c2c(CN3CCCC3)c(O)ccc21,"inconclusive: 23.1 µM [activator, single point]",–
O=C1NC(=S)NC(=O)C1=Cc1c(Cl)cccc1Cl,–,inactive: 95%
CCCN1CCc2cc(O)cc3c2[C@H]1Cc1ccc(O)c(O)c1-3,"inconclusive: 23.1 µM [activator, single point]",–
O=C(O)C1=CC2c3ccccc3C1c1ccccc12,"inconclusive: 6.51 µM [activator, single point]",–
CCCOP(=O)(OCCC)C1(Nc2ccc(C)cc2)CCCCC1,"inconclusive: 29.1 µM [activator, single point]",–
